{"source": "patent US20090143724A1", "about": "“Microprojection Array Immunization Patch and Method” (Alza Corporation, priority 2001, published 2009)", "molecules": {"B1": {"name": "ovalbumin (protein, UniProt P01012 2-386, looked up)", "Ovalbumin": "GSIGAASMEFCFDVFKELKVHHANENIFYCPIAIMSALAMVYLGAKDSTRTQINKVVRFDKLPGFGDSIEAQCGTSVNVHSSLRDILNQITKPNDVYSFSLASRLYAEERYPILPEYLQCVKELYRGGLEPINFQTAADQARELINSWVESQTNGIIRNVLQPSSVDSQTAMVLVNAIVFKGLWEKAFKDEDTQAMPFRVTEQESKPVQMMYQIGLFRVASMASEKMKILELPFASGTMSMLVLLPDEVSGLEQLESIINFEKLTEWTSSNVMEERKIKVYLPRMKMEEKYNLTSVLMAMGITDVFSSSANLSGISSAESLKISQAVHAAHAEINEAGREVVGSAEAGVDAASVSEEFRADHPFLFCIKHIATNAVLFFGRCVSP", "modifications": "FITC label (in one form)", "notes": "model protein antigen (Grade V, SIGMA); FITC-labeled form used for coating and delivery quantitation"}}, "key": {"[1]": {"assay": "Amount of OVA coated on microprojection arrays by immersion (FITC-OVA extraction, luminescence spectrometry)", "settings": "FITC-labeled ovalbumin, 2 cm^2 array, mean ± SEM"}, "[2]": {"assay": "Example 2: amount coated on tip-coated microprojection arrays (fluorimetry / total protein assay)", "settings": "for Amount coated on the array: 20 wt % FITC-ovalbumin, tip coating, 2 cm^2 array"}}, "data": [{"molecule": "B1", "values": [{"measurement": "Amount of ovalbumin coated on microprojection array", "setting": "[1]; 1% ovalbumin coating concentration", "result": "approximately 7 μg/cm^2"}, {"measurement": "Amount of ovalbumin coated on microprojection array", "setting": "[1]; 1% ovalbumin coating concentration, listed as Ovalbumin", "result": "7.4 ± 0.6", "unit": "μg/cm^2"}, {"measurement": "Amount of ovalbumin coated on microprojection array", "setting": "[1]; 5% ovalbumin coating concentration", "result": "about 40 μg/cm^2"}, {"measurement": "Amount of ovalbumin coated on microprojection array", "setting": "[1]; 5% ovalbumin coating concentration, listed as Ovalbumin", "result": "42.2 ± 1.9", "unit": "μg/cm^2"}, {"measurement": "Amount of ovalbumin coated on microprojection array", "setting": "[1]; 20% ovalbumin coating concentration", "result": "about 240 μg/cm^2"}, {"measurement": "Amount of ovalbumin coated on microprojection array", "setting": "[1]; 20% ovalbumin coating concentration, listed as Ovalbumin", "result": "238 ± 20", "unit": "μg/cm^2"}, {"measurement": "Amount coated on the array", "setting": "[2]; 1 coating", "result": 1.8, "unit": "µg"}, {"measurement": "Amount coated on the array", "setting": "[2]; 2 coatings", "result": 3.7, "unit": "µg"}, {"measurement": "Amount coated on the array", "setting": "[2]; 4 coatings", "result": 4.3, "unit": "µg"}, {"measurement": "Ovalbumin coated per microprojection array", "setting": "[2]; coating solution 2 wt % ovalbumin and 10 wt % GMDP, eight coatings", "result": 2.2, "unit": "µg"}, {"measurement": "Amount of protein coated on the arrays", "setting": "[2]; untagged ovalbumin, 20 wt % OVA coating solution, total protein assay, target dose 5 μg", "result": "4.6 ± 0.5", "unit": "µg"}]}]}
